Reference: paper PMC3088666
These are yes or no findings as the source states them, for the method shown. Binding seen in cells or lysates may run through a third protein. Some results given as binding are weak or reduced against the parent protein; the word gives no strength. Sequences can lack the tags named with a protein.

The chains behind the UniProt entries cited, without tags or fusion partners.
UniProt Q02577: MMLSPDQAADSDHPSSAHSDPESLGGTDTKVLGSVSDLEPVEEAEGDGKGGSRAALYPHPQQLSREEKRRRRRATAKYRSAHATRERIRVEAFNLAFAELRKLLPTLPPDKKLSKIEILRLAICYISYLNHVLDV

Assays:
[1] = target: T1, Myc-HES1 (rat) (UniProt Q04666); test: co-IP; Neuro2a cells co-transfected, lysed 48 h later in 25 mM Tris-HCl pH 8.0, 137 mM NaCl, 2.7 mM KCl, 1% Triton X-100; 2 mg lysate immunoprecipitated with polyclonal anti-FLAG or anti-Myc tag antibody overnight at 4°C, protein G-Sepharose; immunoblot
T1 sequence: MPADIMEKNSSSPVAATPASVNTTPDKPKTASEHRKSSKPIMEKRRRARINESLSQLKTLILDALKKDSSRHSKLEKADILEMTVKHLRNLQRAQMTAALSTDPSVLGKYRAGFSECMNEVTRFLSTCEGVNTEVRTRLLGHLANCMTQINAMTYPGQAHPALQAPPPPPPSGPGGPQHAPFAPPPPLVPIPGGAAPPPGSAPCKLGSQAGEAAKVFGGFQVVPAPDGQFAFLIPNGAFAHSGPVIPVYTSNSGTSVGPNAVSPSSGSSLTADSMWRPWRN

[2] = target: T1, Myc-HES1 (rat); test: pull-down; in vitro pull-down: radio-labeled in vitro translated FLAG-HEN2 incubated with lysate of Neuro2a cells transfected with Myc-HES1; immunoprecipitated with polyclonal anti-Myc tag antibody (control: normal rabbit serum); SDS-PAGE, autoradiography
[3] = target: FLAG-HEN2 (human) (UniProt Q02577); test: co-IP; Neuro2a cells co-transfected, lysed 48 h later in 25 mM Tris-HCl pH 8.0, 137 mM NaCl, 2.7 mM KCl, 1% Triton X-100; 2 mg lysate immunoprecipitated with polyclonal anti-FLAG or anti-Myc tag antibody overnight at 4°C, protein G-Sepharose; immunoblot
[4] = target: T2, FLAG-LMO3 (human) (UniProt Q8TAP4); test: as above
T2 sequence: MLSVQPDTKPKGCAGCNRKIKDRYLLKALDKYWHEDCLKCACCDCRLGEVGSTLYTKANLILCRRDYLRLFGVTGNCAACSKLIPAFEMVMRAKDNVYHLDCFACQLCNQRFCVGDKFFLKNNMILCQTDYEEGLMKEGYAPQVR

In the case of FLAG-HEN2 (from UniProt Q02577 1-135), the binding [1] is reported as “binds”.

For “Radio-labeled FLAG-HEN2 (from UniProt Q02577 1-135)”, the binding [2] was “binds”.

B1: Myc-HES1 (protein, UniProt Q04666 1-281)
chain: T1 sequence
For B1, the binding [3] was “binds” and the binding [4] was “binds”.
